Measurements reported in patent US20080227780A1, “SOLUBLE EPOXIDE HYDROLASE INHIBITORS” (Arete Therapeutics, Inc., priority 2007, published 2008).
At least one structure is not confirmed: it was looked up by name or label, or the drawing left a doubt.

Test system: soluble epoxide hydrolase (sEH)
Experiment: Fluorescent assay for soluble epoxide hydrolase (CMNPC substrate), percent inhibition at the recited concentration
Assay type: biochemical
From the text: Fluorescent Assay for Mouse and Human Soluble Epoxide Hydrolase Recombinant mouse sEH (MsEH) and human sEH (HsEH) were produced in a baculovirus expression system as previously reported. Grant et al., J. Biol. Chem., 268:17628-17633 (1993); Beetham et al., Arch. Biochem. Biophys., 305:197-201 (1993). The expressed proteins were purified from cell lysate by affinity chromatography. Wixtrom et al., Anal. Biochem., 169:71-80 (1988). Protein concentration was quantified using the Pierce BCA assay using bovine serum albumin as the calibrating standard. The preparations were at least 97% pure as judged by SDS-PAGE and scanning densitometry. They contained no detectable esterase or glutathione transferase activity which can interfere with the assay. The assay was also evaluated with similar results in crude cell lysates or homogenate of tissues. The IC50s for each inhibitor were determined according to the following procedure: […] Jones P. D. et al.; Analytical Biochemistry 2005; 343: pp. 66-75) Bis/Tris HCl 25 mM pH 7.0 containing 0.1 mg/mL of BSA (buffer […] at 0.25 mM in DMSO. Mother solution of enzyme in buffer A (Mouse sEH at 6 μg/mL and Human sEH at 5 μg/mL). Inhibitor dissolved in DMSO at the appropriate concentration. In a black 96 well plate, fill all the wells with 150 μL of buffer A. Add 2 μL of DMSO in well A2 and A3, and then add 2 μL of inhibitor solution in A1 and A4 through A12. Add 150 μL of buffer A in row A, then mix several time and transfer 150 μL to row B. Repeat this operation up to row H. The 150 μL removed from row H is discarded. Add 20 μL of buffer A in column 1 and 2, then add 20 μL of enzyme solution to column 3 to 12. Incubate the plate for 5 minutes in the plate reader at 30° C. During incubation prepare the working solution of substrate by mixing 3.68 mL of buffer A (4×0.920 mL) with 266 μL (2×133 μL) of substrate solution). At t=0, add 30 μL of working substrate solution with multi-channel pipette labeled “Briggs 303” and start the reading ([S]final: 5 μM). Read with ex: 330 nm (20 nm) and em: 465 nm (20 nm) every 30 second for 10 minutes. The velocities are used to analyze and calculate the IC50s. Tables 1-7 above provide the percent inhibition of the enzyme when tested at the concentration recited therein.

| SMILES | % inh. (Inhibition Conc. 2000 nM) [%] | % inh. (Inhibition Conc. 200 nM) [%] |
| --- | --- | --- |
| O=C(Nc1ccc(Br)cc1)NC1CCN(c2ccccc2)CC1 [Compound 2-10, 1-(4-bromophenyl)-3-(1-phenylpiperidin-4-yl)urea] | 99 | – |
| O=C(NC1CCN(c2ccccc2F)CC1)NC12CC3CC(CC(C3)C1)C2 [Compound 2-12, 1-adamantyl-3-(1-(2-fluorophenyl)piperidin-4-yl)urea] | 100 | – |
| CC(C)(C)OC(=O)N1CCC(NC(=O)Nc2ccc(Br)cc2)CC1 [Compound 7-51, tert-butyl 4-(3-(4-bromophenyl)ureido)piperidine-1-carboxylate] | – | 100 |
| O=C(NC1CCN(C(=O)N2CCC(NC(=O)NC34CC5CC(CC(C5)C3)C4)CC2)CC1)NC12CC3CC(CC(C3)C1)C2 [Compound 7-66, 1,1′-(1,1′-carbonylbis(piperidine-4,1-diyl))bis(3-adamantylurea)] | – | 92 |
